Assay results as given in the supplement of paper PMC11348887.
Where a name gives a salt, the structure may show the parent alone. This is one part of the list. Most values lie at the level of the controls, where differences are scatter.

system: hPSC-derived cortical neurons (WA09); assay: nucleus area z-score vs screen plate; higher = larger nuclei (more mature); conditions: 5 µM; treatment: days 7-14 after plating, readout day 21

How did the nucleus area z-score turn out when C=C1CC[C@@H]2[C@](C)(CO)[C@H](O)CC[C@@]2(C)[C@@H]1C/C=C1/C(=O)OC[C@H]1O [Andrographolide] was run?
The nucleus area z-score was 0.522.

For CCC(=O)O[C@@H](O[P@](=O)(CCCCc1ccccc1)CC(=O)N1C[C@H](C2CCCCC2)C[C@H]1C(=O)O)C(C)C [Fosinopril Sodium], which nucleus area z-score is on record?
The nucleus area z-score was 0.0879.

How did the nucleus area z-score turn out when Cc1onc(-c2c(Cl)cccc2Cl)c1C(=O)N[C@@H]1C(=O)N2[C@@H]1SC(C)(C)[C@@H]2C(=O)O [Dicloxacillin Sodium] was run?
The nucleus area z-score was 0.309.

How did the nucleus area z-score turn out when CCOc1cc(C(C)(C)C)ccc1C1=N[C@@](C)(c2ccc(Cl)cc2)[C@@](C)(c2ccc(Cl)cc2)N1C(=O)N1CCN(CCCS(C)(=O)=O)CC1 was run?
The nucleus area z-score was -1.5.

CN1CCC(Nc2nc(Nc3ccc(Oc4ccccc4)cc3)c3c(=O)[nH]cc(Br)c3n2)CC1 was tested. Which nucleus area z-score did it give?
The nucleus area z-score was -13.

With Oc1c(I)cc(I)c2cccnc12 [Diiodohydroxyquinoline] as the compound, how does the nucleus area z-score read?
Its nucleus area z-score is 0.458.

Which nucleus area z-score does the source give for O=C1OC(CN2CCOCC2)CN1/N=C/c1ccc([N+](=O)[O-])o1 (configuration not stated) [Furaltadone HCl] here?
The nucleus area z-score was 0.199.

Which nucleus area z-score does the source give for Cc1cccc(C)c1NC(=O)C1CCCCN1C (configuration not stated) [Mepivacaine HCl] here?
The nucleus area z-score was 0.203.

CC1(C)[C@H](C(=O)O)N2C(=O)C[C@H]2S1(=O)=O [Sulbactam sodium] was tested. Which nucleus area z-score did it give?
The nucleus area z-score was 0.393.

For COc1c(C)c(C(=O)c2ccc(N)c(C(=O)O)c2)n2ccccc12, which nucleus area z-score is on record?
Its nucleus area z-score is 0.348.

COc1ccc2[nH]c([S+]([O-])Cc3ncc(C)c(OC)c3C)nc2c1 (configuration not stated) [Omeprazole] was tested. Which nucleus area z-score did it give?
Its nucleus area z-score is -6.42.

How did the nucleus area z-score turn out when O=C1O[C@H](CO)[C@@H](O)[C@H](O)[C@H]1O [Gluconolactone] was run?
The nucleus area z-score was 0.288.
